Test results reported in PubChem BioAssay AID493014 (National Center for Advancing Translational Sciences (NCATS), 2011).
The list shows a part of the results. The main result of the screen is listed elsewhere. These columns were measured beside it and carry no call. Compounds called inactive in the main read-out are mostly missing here. Words in brackets tell the shape of the fitted curve; partial curves, single points and poor fits give uncertain potencies.

Assay: qHTS Assay to Find Inhibitors of Chronic Active B-Cell Receptor Signaling
Conditions: ABC-DLBCL IkBa-CBG/CBR reporter, luminescence ratio (green luciferase fused to IkBa over red control in TMD8 lymphoma cells), 4 h
Procedure, shortened: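 Compounds up to 46 uM were incubated four hours with TMD8 cells whose green CBG68 luciferase is fused to IkappaBalpha; red CBR luminescence normalised the signal, and concentration-effect curves were fitted to fusion, red and ratio data.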

[1] = measured here: CBR red luminescence, cell number
[2] = measured here: IkBa-CBG green luminescence

Which AC50 [1] does the source give for CC(C)[C@@H](COc1ccccc1)N1CCN(Cc2ccccc2)CCC1=O here?
Its AC50 is 11.2 µM [falling, partial curve, poor fit].

With N#CC(C#N)=C/C=C(\Nc1ccc(Cl)cc1)c1ccc(Cl)cc1 as the compound, how does the AC50 [1] read?
The AC50 was 10 µM [falling, partial curve].

For O=C(Nc1ccccc1)c1ccc(-c2ccccc2C(F)(F)F)o1, which AC50 [1] is on record?
The AC50 was 29.1 µM [falling, single point].

For COc1cc(NC(=O)CSc2nc3nc(C)c(Cc4ccc(C)cc4)c(C)n3n2)cc(OC)c1, which AC50 [1] is on record?
The AC50 was 6.31 µM [falling, full curve, poor fit].

Which AC50 [1] does the source give for CC1(/[N+]([O-])=C/c2ccccc2F)CCCCC1=O (stereo unspecified) here?
The AC50 was 20 µM [falling, partial curve].

For CCCc1nc2oc3ccccc3c(=O)c2c(=O)n1-c1ccccc1, which AC50 [1] is on record?
The AC50 was 0.398 µM [falling, full curve].

Which AC50 [1] does the source give for Cc1cc(C)nc(NC(=O)/C=C/c2ccccc2Cl)n1 here?
The AC50 was 16.4 µM [falling, partial curve, poor fit].

With CCOC(=O)N1CCC(Nc2cccc(SC)c2)CC1 as the compound, how does the AC50 [1] read?
Its AC50 is 14.1 µM [falling, partial curve, poor fit].

For Cc1ccc(N2C(=O)C3ON(c4ccccc4)C(c4ccncc4)C3C2=O)cc1 (stereo unspecified), which AC50 [1] is on record?
Its AC50 is 13 µM [falling, partial curve, poor fit].

For CN1CCC2(CC1)Nc1nc(SCc3ccc(Cl)cc3)nn1C1=C2CN(C)CC1, which AC50 [1] is on record?
The AC50 was 25.1 µM [falling, single point].

Which AC50 [1] does the source give for CC(=O)Oc1ccc2c(=O)oc(-c3ccc([N+](=O)[O-])cc3)nc2c1 here?
Its AC50 is 0.501 µM [falling, full curve].

Which AC50 [1] does the source give for COc1cccc(-n2c(SCC(=O)NC3CCCCC3)nc3n[nH]c(C)c3c2=N)c1 here?
Its AC50 is 7.08 µM [falling, partial curve, poor fit].

Which AC50 [1] does the source give for CN(C)S(=O)(=O)c1ccc(NC(=O)CSc2nc3ccccc3n2-c2ccccc2)cc1 here?
The AC50 was 23.1 µM [falling, partial curve, poor fit].

Which AC50 [1] does the source give for Cc1cc(=O)[nH]c(SCc2cc(=O)n3nc(C)sc3n2)n1 here?
Its AC50 is 5.17 µM [falling, single point].

With CNC(=O)N(O)C1N(C)C(=O)N(Cc2ccccc2)C1(C)C (stereo unspecified) as the compound, how does the AC50 [1] read?
Its AC50 is 0.82 µM [falling, full curve, poor fit].

Which AC50 [1] does the source give for CC(=O)c1sc(NC(=O)COc2ccc(Cl)cc2C)nc1C here?
The AC50 was 8.91 µM [rising, partial curve, poor fit].

For Clc1nssc1=Nc1ccc(Br)cc1, which AC50 [1] is on record?
Its AC50 is 35.5 µM [falling, single point].

For CCOc1cc(-c2noc(CCC(=O)NCC3CCCO3)n2)ccc1OC (stereo unspecified), which AC50 [1] is on record?
Its AC50 is 3.16 µM [falling, single point].

With Cc1c(NC(=O)CSc2ccccn2)c(=O)n(-c2ccccc2)n1C as the compound, how does the AC50 [1] read?
The AC50 was 29.1 µM [rising, single point].

With O=C(Nc1ccc(Br)cc1)c1cccc(S(=O)(=O)Nc2cnc3ccccc3c2)c1 as the compound, how does the AC50 [1] read?
The AC50 was 18.4 µM [falling, single point].

Which AC50 [1] does the source give for Cc1cc(=O)oc2cc(OCC3CC(c4ccc(N(C)C)cc4)=NO3)ccc12 (stereo unspecified) here?
Its AC50 is 3.98 µM [rising, full curve, poor fit].

With FC(F)(F)COc1ccc(-c2nnc(SCc3ccccc3)o2)cn1 as the compound, how does the AC50 [1] read?
Its AC50 is 0.0891 µM [falling, full curve, poor fit].

For COc1ccc(-c2c([C@H]3[C@@H]4C=CCC[C@@]4(C)C(=O)N3Cc3ccccc3)ccc3ccccc23)cc1OC, which AC50 [1] is on record?
The AC50 was 22.4 µM [falling, single point].

Which AC50 [1] does the source give for O=C(Nc1ccc(F)cc1F)c1cc2n(n1)C(C(F)(F)F)C1CCCCC1N2 (stereo unspecified) here?
The AC50 was 11.6 µM [rising, partial curve].

For CC(C)COC(=O)c1cccc2c1-c1ccccc1/C2=N\O, which AC50 [2] is on record?
Its AC50 is 29.1 µM [rising, partial curve, poor fit].

Which AC50 [1] does the source give for O=C(CCCc1c[nH]c2ccccc12)NCc1ccccc1F here?
The AC50 was 7.94 µM [falling, partial curve, poor fit].

Which AC50 [1] does the source give for Cc1ccc(-c2onc3ccc(Br)cc23)cc1 here?
Its AC50 is 20 µM [rising, partial curve, poor fit].

Which AC50 [1] does the source give for O=C(Nc1ccccc1)C1COc2ccccc2O1 (stereo unspecified) here?
Its AC50 is 0.501 µM [rising, full curve, poor fit].

Which AC50 [1] does the source give for COc1cc(/C=N/Nc2nc(Nc3ccc(C)cc3)nc(-n3nc(C)cc3C)n2)cc(OC)c1OC here?
The AC50 was 0.517 µM [falling, full curve].

Which AC50 [1] does the source give for Cc1ccccc1NC(=O)CCN1CCN(Cc2ccccc2)CC1 here?
The AC50 was 13 µM [rising, partial curve].

For O=C(COc1ccccc1Cl)NCCCNC(=O)c1ccco1, which AC50 [1] is on record?
Its AC50 is 5.01 µM [falling, partial curve, poor fit].

With CCOc1ccc(-c2noc(CCCC(=O)NC3CCCCC3)n2)cc1OC as the compound, how does the AC50 [1] read?
Its AC50 is 5.01 µM [falling, partial curve].

For O=C(CN1CCN(CC(=O)Nc2ccccc2Cl)CC1)Nc1ccc2c(c1)OCCO2, which AC50 [1] is on record?
The AC50 was 22.4 µM [falling, single point].

With COc1ccc(/C=N/NC(=O)c2ccccc2O)cc1Cn1cc(Cl)cn1 as the compound, how does the AC50 [1] read?
The AC50 was 7.08 µM [falling, full curve].

Which AC50 [1] does the source give for O=C(NCc1cccs1)c1nc2c(nnn2Cc2ccccc2Cl)c(=O)[nH]1 here?
The AC50 was 4.11 µM [falling, full curve, poor fit].

What about the AC50 [2] of the same compound?
Its AC50 is 5.17 µM [rising, full curve, poor fit].

For Cc1ccoc1C(=O)NCc1occc1C(=O)O, which AC50 [1] is on record?
The AC50 was 11.2 µM [falling, partial curve].

For Cc1cc(C)n2nc(C(=O)Nc3cccc(S(=O)(=O)N4CCOCC4)c3)nc2n1, which AC50 [1] is on record?
Its AC50 is 0.92 µM [rising, full curve, poor fit].

With CCN(CC)S(=O)(=O)c1ccc(NC(=S)NC(=O)C(C)C)cc1 as the compound, how does the AC50 [1] read?
Its AC50 is 16.4 µM [rising, partial curve, poor fit].

Which AC50 [1] does the source give for CC(C)CN(C(=O)COC(=O)Cc1ccc(Cl)cc1)c1c(N)n(Cc2ccccc2)c(=O)[nH]c1=O here?
Its AC50 is 29.1 µM [rising, single point].

Which AC50 [1] does the source give for CCOC(=O)c1cnc(SCc2nc(N)nc(Nc3ccc(OC)cc3)n2)nc1N here?
Its AC50 is 0.651 µM [rising, full curve, poor fit].
